Hit rate of the full screen: of about 1,100 compounds, fewer than 10 were called active.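 How the source made its calls: active means percent response below a set limit in fluorescence channel 1 and below 50% in channel 8; inactive means the rest.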 Only a part is listed here, and it is no random draw.

This experiment is described as follows: fluorescent artefacts in FAP flow readout – cell-based, FAP fluorogen, flow cytometry, cherry pick 1, artefact control for beta2AR agonist internalization project, confirmation (AID 588765).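 Further: low percent response here flags compound autofluorescence meaning a false positive.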 As to conditions: Am2.2 cells, fluorescence counterscreen, at 10 µM, hits give low values.
Consider `CCC(=O)c1ccc(OCC(=O)N2CCN(CC(=O)Nc3ccc(C)cc3)CC2)cc1`, for which the percent response FL1 was inactive: 1.48%.

For the origin of these results see PubChem BioAssay AID588765 (NMMLSC, 2011).
